Results deposited as PubChem BioAssay AID504764 (Drosophila RNAi Screening Center, 2011).
The deposit covers about 22,000 reagents; shown is a random part of those that have a named target and a result. Of all reagents, 403 (1.9%) are marked active. 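Unnormalised raw counts per well; ratio z-scores behind the hit calls and whether each hit raises or lowers signal are not deposited.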 The numbers tell different reagents against one gene apart. A plus sign joins genes that one reagent is predicted to hit. Not given: the amount of reagent.

Test: 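Genome-wide screen for regulators of Notch-driven gene expression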 (primary screen)
Cells: Drosophila Kc167 cells
Knock-down reagent: long dsRNA against Drosophila genes
Duration: about 5 days (4 days dsRNA, then 24 h after transfection)
Challenge: transfection of constitutively active membrane-tethered Notch lacking the extracellular domain, read 24 h later
Read-out: 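Firefly luciferase from an E(spl)m3 reporter with active Notch, plus control-promoter and uninduced reporter wells for normalisation; unnormalised counts, duplicate wells a and b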
Scale: induced reporter light, run 1, well a and induced reporter light, run 1, well b: higher = more light from the Notch target reporter with active Notch; control promoter light, run 1, well a and control promoter light, run 1, well b: higher = more light from the viral control promoter (cell number, transfection, viability); uninduced reporter light, run 1, well a: higher = more light from the Notch target reporter without active Notch
Hit rule: 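Hit if the duplicate-averaged log2 ratio of induced to control-promoter light gives a plate-wise z beyond ±2, or induced to uninduced beyond ±1.8; weak-control or discordant-duplicate wells dropped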
Calls: active = modifier hit (raised or lowered Notch signal); inactive = not a hit

no.	predicted target	dsRNA no.	induced reporter light, run 1, well a	induced reporter light, run 1, well b	control promoter light, run 1, well a	control promoter light, run 1, well b	uninduced reporter light, run 1, well a	outcome
1	CG42758	1	2.02e5	1.72e5	1.94e5	1.78e5	10992	inactive
2	Spn42Dd	1	2.25e5	2.00e5	2.53e5	2.14e5	19915	inactive
3	CG13192	1	98755	99085	1.28e5	1.01e5	8580	inactive
4	CG10738	1	1.37e5	1.29e5	2.09e5	1.67e5	8335	inactive
5	CG14852	1	1.58e5	1.28e5	94380	93940	13595	inactive
6	CG3819	1	72075	73295	73890	63360	5190	inactive
7	CG31301	1						inactive
8	Cdc27	1	49210	48230	37645	16880	3270	inactive
9	CG3581	1	1.72e5	1.46e5	1.80e5	1.47e5	12550	inactive
10	CG32053	1	75495	88040	68565	28005	9510	inactive
11	Cpr30F	1	3.14e5	2.51e5	2.96e5	2.80e5	19030	inactive
12	Obp50a	1						inactive
13	CG32262	1	1.59e5	1.52e5	91245	47915	12260	inactive
14	CG10163	1	2.62e5	1.65e5	2.22e5	2.15e5	11520	inactive
15	Mal-A4	1	2.07e5	1.79e5	2.40e5	2.51e5	18230	inactive
16	Acat1	1	2.37e5	1.92e5	3.08e5	2.96e5	14105	inactive
17	CG15111	1						inactive
18	Aprt	1	93645	96085	1.11e5	1.46e5	6365	inactive
19	crq	1	1.02e5	95315	84775	64775	8142	inactive
20	CaMKII	1	1.68e5	2.10e5	2.32e5	2.33e5	13730	inactive
21	CG13054	1	1.96e5	1.56e5	3.25e5	2.58e5	8550	active
22	Crz	1	2.37e5	2.34e5	1.89e5	2.01e5	14850	inactive
23	CG13108	1	1.04e5	1.19e5	57270	85340	15765	inactive
24	CG6628	1	2.16e5	1.57e5	2.40e5	2.49e5	10010	inactive
25	lwr	1	69880	60685	77690	90495	8320	inactive
26	CG17646	1	86625	88895	72610	71945	6320	inactive
27	CG18542 + CG32939	1	1.56e5	1.58e5	87490	91140	12215	inactive
28	Rack1	1	91425	1.05e5	53490	65065	12935	inactive
29	CG15035	1	1.36e5	1.32e5	2.17e5	2.10e5	10420	inactive
30	stas	1	1.78e5	1.49e5	1.45e5	1.10e5	10985	inactive
31	CG4025	1	1.06e5	85140	1.57e5	1.94e5	7360	inactive
32	dup	1	44980	36940	38630	41995	5675	inactive
33	CG13738	1	2.18e5	2.10e5	2.83e5	2.36e5	21225	inactive
34	CG34454	1	2.00e5	2.05e5	2.09e5	2.33e5	15890	inactive
35	ver	1	1.63e5	1.71e5	2.79e5	2.20e5	7565	inactive
36	mats	1	98640	91045	1.34e5	1.16e5	12830	inactive
37	mats	2	1.30e5	1.48e5	1.46e5	1.40e5	11845	inactive
38	Prosbeta2R2	1	71055	96600	83905	91515	7200	inactive
39	PEK	1	1.37e5	1.38e5	87155	71540	9465	inactive
40	Smyd4-2	1	82990	81220	1.58e5	1.23e5	7590	inactive
41	Atf3	1	13265	14200	23475	23742	4232	inactive
42	CG11779 + CG5835	1	1.81e5	1.63e5	1.72e5	1.66e5	12240	inactive
43	phol	1	1.04e5	1.22e5	70295	38490	9330	inactive
44	CG9257	1	50745	26260	22470	41090	1865	inactive
45	Hil	1	62905	79640	1.08e5	94035	5560	inactive
46	Hil	2	1.47e5	1.40e5	2.33e5	2.73e5	8595	inactive
47	CG32572	1	80815	98240	88685	64145	9235	inactive
48	CG32572	2	97015	81965	92460	78575	11015	inactive
49	CG11279	1	1.53e5	1.11e5	1.51e5	1.35e5	8605	inactive
50	Erasp	1	1.34e5	1.60e5	2.37e5	2.71e5	13125	inactive

Reformatted: entries from further up
CG4025 | induced reporter light, run 1, well a = 1.06e5; induced reporter light, run 1, well b = 85140; control promoter light, run 1, well a = 1.57e5; control promoter light, run 1, well b = 1.94e5; uninduced reporter light, run 1, well a = 7360; outcome = inactive
dup | induced reporter light, run 1, well a = 44980; induced reporter light, run 1, well b = 36940; control promoter light, run 1, well a = 38630; control promoter light, run 1, well b = 41995; uninduced reporter light, run 1, well a = 5675; outcome = inactive
CG13738 | induced reporter light, run 1, well a = 2.18e5; induced reporter light, run 1, well b = 2.10e5; control promoter light, run 1, well a = 2.83e5; control promoter light, run 1, well b = 2.36e5; uninduced reporter light, run 1, well a = 21225; outcome = inactive
CG34454 | induced reporter light, run 1, well a = 2.00e5; induced reporter light, run 1, well b = 2.05e5; control promoter light, run 1, well a = 2.09e5; control promoter light, run 1, well b = 2.33e5; uninduced reporter light, run 1, well a = 15890; outcome = inactive
ver | induced reporter light, run 1, well a = 1.63e5; induced reporter light, run 1, well b = 1.71e5; control promoter light, run 1, well a = 2.79e5; control promoter light, run 1, well b = 2.20e5; uninduced reporter light, run 1, well a = 7565; outcome = inactive
mats #1 | induced reporter light, run 1, well a = 98640; induced reporter light, run 1, well b = 91045; control promoter light, run 1, well a = 1.34e5; control promoter light, run 1, well b = 1.16e5; uninduced reporter light, run 1, well a = 12830; outcome = inactive
